{
  "source": "PubChem BioAssay AID504444",
  "about": "(National Center for Advancing Translational Sciences (NCATS), 2011)",
  "note": "Among all 360,000 compounds or so, about 7,500 (2.1%) were called active. The inconclusive results got no clear call from the source; some entries with a clear call stand among them for comparison. The call rests on the fitted dose curve; in most records, active means well fitted inhibition curve with a large enough effect; inconclusive means small, poorly fitted or top-dose-only effect, or effect the other way; inactive means flat fitted curve, though single readings scatter. Where the call is inconclusive, the potency comes from a doubtful curve fit. On the % scale 0 is the no-effect control and ±100 the full control effect; potency means the concentration at half of the fitted maximal effect.",
  "data": [
    {"assay": "Nrf2 qHTS screen for inhibitors; further: nearly all actives have a fitted effect of over 60% in size", "details": "A549 ARE-Fluc reporter, luciferase luminescence, 18-24 h; activity change, negative = inhibition: at 46 µM (top of the series)", "summary_of_the_method": "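Quantitative HTS in A549 cells stably bearing an antioxidant response element-firefly luciferase construct. Inhibition of Nrf2-driven transcription was scored by luminescence after 18-24 h of compound exposure at 37 °C.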", "values": [
      {"smiles": "COc1ccc(OC)c(NC(=O)c2cnn(-c3ccc(C)cc3)c2C2CCNCC2)c1", "Potency": "inconclusive: 29.1 µM [activator, single point]"},
      {"smiles": "Cc1ccc(/C=C2/SC(=S)N(CCC(=O)NCCCN3CCOCC3)C2=O)cc1", "Potency": "inconclusive: 23.1 µM [activator, single point]"},
      {"smiles": "CC(=O)c1cccc(NC(=O)c2noc3c2CCCC3)c1", "Potency": "inconclusive: 16.4 µM [activator, partial curve, poor fit]"},
      {"smiles": "C/C(=C/c1oc2ccc(O)cc2c1[N+](=O)[O-])N(C)C", "Potency": "inconclusive: 2.06 µM [activator, partial curve, poor fit]"},
      {"smiles": "Cc1ccccc1Cn1c(CN2CCCC(C)C2)nc2c1c(=O)n(C)c(=O)n2C", "note": "(configuration not stated)", "activity change, negative = inhibition": "inactive: 4.07%"},
      {"smiles": "Cc1cccc2c1N(CCOc1ccc(C(C)(C)C)cc1)C(=O)C2=O", "activity change, negative = inhibition": "inactive: -4.03%"},
      {"smiles": "Cc1[nH]c2ccccc2c1C(c1ccccn1)c1c(C)[nH]c2ccccc12", "Potency": "inconclusive: 29.1 µM [falling, single point]"},
      {"smiles": "CC(C)c1ccc(Nc2c([N+](=O)[O-])c(=O)n(C)c3ccccc23)cc1", "Potency": "inconclusive: 20.6 µM [falling, single point]"},
      {"smiles": "CCc1ccc(/C=C2/Sc3ccccc3N(CC(=O)NCC3CCCO3)C2=O)cc1", "note": "(configuration not stated)", "Potency": "inconclusive: 25.9 µM [falling, single point]"},
      {"smiles": "COc1ccc(C(=O)C2CCCN(C(=O)c3cccnc3SC)C2)c(C)c1", "note": "(configuration not stated)", "Potency": "inconclusive: 29.1 µM [falling, partial curve, poor fit]"},
      {"smiles": "Cc1ccc(C)c(S(=O)(=O)N2CCNCC2)c1", "activity change, negative = inhibition": "inactive: -4.16%"},
      {"smiles": "Cc1ccc2nc(-c3ccccc3)cn2c1", "Potency": "active: 6.51 µM"},
      {"smiles": "CCCC(=O)N1CCN(c2nc3ccc(Cl)cc3s2)CC1", "Potency": "inconclusive: 29.1 µM [falling, single point]"},
      {"smiles": "S=C1CCC(c2ccc(Cl)cc2)=NN1c1ccccc1", "Potency": "inconclusive: 6.51 µM [activator, partial curve, poor fit]"},
      {"smiles": "CCOc1cccc2c1OC(c1cc(OC)c(OC)c(OC)c1)N1N=C(c3ccc(C)o3)CC21", "note": "(configuration not stated)", "Potency": "inconclusive: 20.6 µM [activator, single point]"},
      {"smiles": "Cc1ccc(C)c(N2CCN(C(=O)c3noc4c3CCCCC4)CC2)c1", "Potency": "inconclusive: 20.6 µM [falling, single point]"},
      {"smiles": "Cc1ccc(-c2ccc(NC(=O)C3C4C=CC(C4)C3C(=O)O)cc2)o1", "note": "(configuration not stated)", "Potency": "inconclusive: 3.66 µM [activator, partial curve]"},
      {"smiles": "CCCN(Cc1cc2cc(OC)ccc2[nH]c1=O)C(=O)c1ccncc1", "activity change, negative = inhibition": "inactive: -12.6%"},
      {"smiles": "Cc1cc(C)nc(-n2ncc3c2CC(c2ccccc2)CC3=O)n1", "note": "(configuration not stated)", "Potency": "inconclusive: 29.1 µM [falling, single point]"},
      {"smiles": "O=C(NCc1cccs1)c1ccc2ccccc2n1", "Potency": "inconclusive: 13 µM [activator, partial curve]"},
      {"smiles": "O=C(CSc1nc(Cc2ccccc2)nc2ccccc12)Nc1ccc2c(c1)OCCO2", "Potency": "inconclusive: 8.2 µM [falling, partial curve, poor fit]"},
      {"smiles": "O=C(CCc1ccccc1)Nc1ccc2ccccc2n1", "Potency": "inconclusive: 4.61 µM [activator, full curve]"},
      {"smiles": "O=C(Cn1c(=O)n(CC2CCC(C(=O)NCCc3ccccc3)CC2)c(=O)c2ccccc21)Nc1cccc(F)c1", "note": "(configuration not stated)", "activity change, negative = inhibition": "inactive: -4.35%"},
      {"smiles": "CC1(OC(=O)C2CCCC2)C(=O)C=C2C=C(c3ccsc3)N(CCCCO)C=C2C1=O", "note": "(configuration not stated)", "activity change, negative = inhibition": "inactive: 1.27%"},
      {"smiles": "COc1cccc(/C=N/n2c(N)c(S(=O)(=O)c3cccs3)c3nc4ccccc4nc32)c1", "Potency": "inconclusive: 3.66 µM [falling, full curve, poor fit]"},
      {"smiles": "C=CCN=c1scc(-c2ccc3c(c2)NC(=O)CO3)n1/N=C(\\C)c1ccccn1", "Potency": "active: 16.4 µM"},
      {"smiles": "O=C(Nc1nc2ccc(Cl)cc2s1)c1cccc(N2C(=O)CCC2=O)c1", "Potency": "inconclusive: 5.17 µM [activator, full curve]"},
      {"smiles": "Cc1ccc(OCC(=O)OCc2cc(=O)n3nc(-c4cccs4)sc3n2)cc1C", "activity change, negative = inhibition": "inactive: 17.7%"},
      {"smiles": "Cc1c(C(=O)NCCc2ccccc2)oc2ccc(S(=O)(=O)N3CCC4(CC3)OCCO4)cc12", "Potency": "inconclusive: 25.9 µM [falling, single point]"},
      {"smiles": "Cc1ccc(C)c(N2CCN(CCCNC(=O)c3cnn(-c4ccccc4Cl)c3C3CCN(C(=O)OC(C)(C)C)CC3)CC2)c1", "Potency": "inconclusive: 29.1 µM [falling, single point]"},
      {"smiles": "Cc1ccc(Cl)cc1N1CCN(Cc2nc3c(c(=O)[nH]c(=O)n3C)n2Cc2ccccc2F)CC1", "Potency": "active: 18.4 µM"},
      {"smiles": "NC(=O)c1ccsc1NC(=O)CS(=O)(=O)c1ccc(F)cc1", "Potency": "inconclusive: 20.6 µM [activator, partial curve, poor fit]"},
      {"smiles": "Cc1ccc(OCC(=O)Nc2cc3nn(-c4ccccc4)nc3cc2C)cc1", "activity change, negative = inhibition": "inactive: 12.2%"},
      {"smiles": "Cc1cc(CC(C)C)n(-c2nc3ccccc3c(=O)n2OCC(N)=O)n1", "Potency": "inconclusive: 20.6 µM [activator, partial curve, poor fit]"},
      {"smiles": "Cc1ccc(C(=O)Nc2ccc(NC(=O)c3cccs3)cc2)cc1C", "Potency": "inconclusive: 13 µM [falling, partial curve, poor fit]"},
      {"smiles": "COc1ccc(NC(=O)c2sccc2C)c([N+](=O)[O-])c1", "Potency": "inconclusive: 29.1 µM [activator, single point]"},
      {"smiles": "COc1ccc(CN2C(=O)c3ccccc3C2=O)cc1C(=O)OCC(=O)NC1CCCCC1", "Potency": "inconclusive: 23.1 µM [falling, single point]"},
      {"smiles": "CN(C)S(=O)(=O)c1ccc(C(=O)Nc2nnc(-c3ccc4c(c3)CCCC4)o2)cc1", "Potency": "inconclusive: 18.4 µM [falling, single point]"},
      {"smiles": "Cc1ccc2oc(-c3ccc(NC(=O)c4ccc5c(c4)OCO5)cc3)nc2c1", "activity change, negative = inhibition": "inactive: -21.4%"},
      {"smiles": "O=C(CSc1nnc2sc3ccccc3n12)c1ccco1", "Potency": "inconclusive: 0.731 µM [activator, full curve, poor fit]"},
      {"smiles": "CC(C)(C)c1cc(C(=O)Nc2ccc(F)cc2)n(Cc2ccc(F)cc2)n1", "Potency": "inconclusive: 29.1 µM [falling, single point]"},
      {"smiles": "COc1cc(NC(=O)CCC(=O)OCCCC(F)(F)C(F)(F)F)nc(OC)n1", "Potency": "inconclusive: 16.4 µM [activator, partial curve, poor fit]"}
    ]}
  ]
}
